According to patent US6630347B1, “Endothelial NOS transgenic animals and methods of use” (The General Hospital Corporation, priority 1996, dated 2003):

Test: Physiological data (blood gases, MABP) before MCA occlusion and after ischemia
Format: in vivo, mice
Details: for pCO2 after / pH after / pO2 after: 24 hrs after ischemia
Description: The right femoral artery was cannulated with PE-10 polyethylene tubing for arterial blood pressure measurement (Gould, Oxnard, Calif.) and blood gas determination (Corning 178, Ciba Corning Diag., Medford, Mass.). Rectal temperature was maintained between 36.5-37.5° C. with a homeothermic blanket system (YSI, Yellow Springs, Ohio). […] The investigator was blinded to the treatment group in this protocol.

[1] = protocol 2, Wt SV-129, 10 min before MCA occlusion (before first dose)
[2] = protocol 2, eNOS mutant, 10 min before MCA occlusion (before first dose)
[3] = protocol 1, eNOS mutant, hydralazine, 10 min before MCA occlusion
[4] = protocol 1, eNOS mutant, hydralazine

SMILES	pCO2 before [1] [mmHg]	pH before [1]	pO2 before [1] [mmHg]	pCO2 after (protocol 2, Wt SV-129) [mmHg]	pH after (protocol 2, Wt SV-129)	pO2 after (protocol 2, Wt SV-129) [mmHg]	pCO2 before [2] [mmHg]	pH before [2]	pO2 before [2] [mmHg]	pCO2 after (protocol 2, eNOS mutant) [mmHg]	pO2 after (protocol 2, eNOS mutant) [mmHg]	pH after (protocol 2, eNOS mutant, 6 mg/kg ip 5 min, 3 and 6 hrs after ischemia)	pCO2 before [3] [mmHg]	pO2 before [3] [mmHg]	pCO2 after [4] [mmHg]	pH after [4]	pO2 after [4] [mmHg]	pH before (protocol 1, eNOS mutant, normotensive group treated with hydralazine, 10 min before MCA occlusion)
NC(=N[N+](=O)[O-])NCCCC(N)C(=O)O [L-NA, L-nitroarginine]	47.8 ± 3.5	7.36 ± 0.04	142 ± 17	49.3 ± 6.3	7.35 ± 0.03	158 ± 22	47.6 ± 4.3	7.36 ± 0.07	120 ± 38	51.0 ± 2.9	134 ± 35	7.33 ± 0.05						
NNc1nncc2ccccc12 [hydralazine, hydralazine hydrochloride]													43.8 ± 5.9	148 ± 16	47.3 ± 2.9	7.30 ± 0.05	139 ± 28	7.35 ± 0.04

Structures can show the parent of a compound that is named as a salt.
